PMC11886768 (2025)
These are yes or no findings as the source states them, for the method shown. For some assays here: Binding seen in cells or lysates may run through a third protein. Some binding calls cover weakened binding; strength is not graded here. For some assays here: Sequences can lack the tags named with a protein. One block for each molecule: values may come before it.

Sequences of proteins named here, by UniProt entry; tags and fusion partners are left off.
UniProt Q43125: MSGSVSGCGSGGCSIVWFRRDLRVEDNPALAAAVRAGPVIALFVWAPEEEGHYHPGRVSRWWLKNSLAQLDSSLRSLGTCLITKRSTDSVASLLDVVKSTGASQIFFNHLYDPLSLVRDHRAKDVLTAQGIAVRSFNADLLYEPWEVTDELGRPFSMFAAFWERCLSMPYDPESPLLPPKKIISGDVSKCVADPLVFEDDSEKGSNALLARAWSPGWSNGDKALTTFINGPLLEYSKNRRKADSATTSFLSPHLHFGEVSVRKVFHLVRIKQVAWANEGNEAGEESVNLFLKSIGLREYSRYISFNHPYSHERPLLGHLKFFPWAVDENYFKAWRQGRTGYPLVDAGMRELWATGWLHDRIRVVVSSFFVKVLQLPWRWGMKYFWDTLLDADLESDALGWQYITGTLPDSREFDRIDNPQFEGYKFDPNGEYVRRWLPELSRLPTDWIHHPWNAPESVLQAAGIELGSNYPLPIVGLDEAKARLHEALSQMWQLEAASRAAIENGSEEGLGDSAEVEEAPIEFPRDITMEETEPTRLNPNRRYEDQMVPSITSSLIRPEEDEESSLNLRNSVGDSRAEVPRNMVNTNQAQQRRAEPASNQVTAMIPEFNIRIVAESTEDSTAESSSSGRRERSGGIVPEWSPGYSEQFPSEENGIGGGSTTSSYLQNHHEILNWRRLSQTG

How the values were obtained:
[1] = molecular target: T1, E-COP1 (Arabidopsis) (UniProt P43254); assay: two-hybrid; mammalian two-hybrid (M2H) in CHO-K1 cells; bait fused to the erythromycin repressor protein (E), prey to VP16; SEAP reporter normalised to secreted NanoLuciferase; cells illuminated with blue light
T1 sequence: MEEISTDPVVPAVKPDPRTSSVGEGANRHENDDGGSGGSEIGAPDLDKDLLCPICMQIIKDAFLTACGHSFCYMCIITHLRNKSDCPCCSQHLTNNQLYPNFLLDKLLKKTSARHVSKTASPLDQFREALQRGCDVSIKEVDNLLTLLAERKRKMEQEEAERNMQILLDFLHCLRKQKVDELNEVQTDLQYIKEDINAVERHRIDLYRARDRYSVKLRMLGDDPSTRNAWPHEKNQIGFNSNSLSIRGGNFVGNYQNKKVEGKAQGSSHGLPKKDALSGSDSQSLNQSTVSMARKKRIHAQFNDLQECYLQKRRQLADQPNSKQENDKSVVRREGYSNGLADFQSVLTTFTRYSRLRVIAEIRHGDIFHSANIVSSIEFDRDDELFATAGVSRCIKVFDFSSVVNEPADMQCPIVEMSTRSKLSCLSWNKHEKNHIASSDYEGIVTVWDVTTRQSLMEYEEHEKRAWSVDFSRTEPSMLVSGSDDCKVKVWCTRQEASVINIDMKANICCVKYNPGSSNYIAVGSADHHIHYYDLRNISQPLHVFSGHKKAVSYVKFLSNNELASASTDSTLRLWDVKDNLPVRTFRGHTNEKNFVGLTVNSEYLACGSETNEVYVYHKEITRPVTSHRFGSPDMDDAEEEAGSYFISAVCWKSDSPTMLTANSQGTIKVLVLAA

[2] = molecular target: T2, COP1 (LexA-based yeast two-hybrid fusion) (Arabidopsis) (UniProt P43254); assay: two-hybrid; LexA-based yeast two-hybrid; yeast 24 h in darkness, then 24 h in 50 umol m^-2 s^-1 blue light or darkness; 'apparent strength'
T2 sequence: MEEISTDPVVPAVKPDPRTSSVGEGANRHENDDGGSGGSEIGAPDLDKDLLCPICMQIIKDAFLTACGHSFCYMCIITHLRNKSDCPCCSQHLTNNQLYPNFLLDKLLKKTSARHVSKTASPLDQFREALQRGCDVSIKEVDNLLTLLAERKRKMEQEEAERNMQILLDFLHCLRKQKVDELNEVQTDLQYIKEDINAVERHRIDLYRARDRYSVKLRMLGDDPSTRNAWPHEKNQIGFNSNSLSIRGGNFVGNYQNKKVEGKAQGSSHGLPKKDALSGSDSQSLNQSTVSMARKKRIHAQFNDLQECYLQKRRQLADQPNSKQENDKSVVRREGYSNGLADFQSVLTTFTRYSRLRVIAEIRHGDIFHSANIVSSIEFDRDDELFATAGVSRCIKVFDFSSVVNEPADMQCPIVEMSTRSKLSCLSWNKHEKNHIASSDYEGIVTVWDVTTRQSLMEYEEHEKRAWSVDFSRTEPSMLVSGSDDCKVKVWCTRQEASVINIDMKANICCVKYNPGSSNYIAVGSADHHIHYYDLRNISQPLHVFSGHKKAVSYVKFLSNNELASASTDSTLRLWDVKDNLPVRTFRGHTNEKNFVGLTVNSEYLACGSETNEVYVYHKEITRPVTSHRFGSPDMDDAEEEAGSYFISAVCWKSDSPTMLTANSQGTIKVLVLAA

[3] = molecular target: T3, BD-COP1 (Arabidopsis) (UniProt P43254); assay: two-hybrid; Gal4-based yeast three-hybrid, third protein co-expressed as 'bridge protein'; beta-galactosidase activity; yeast 2 days in darkness, or 1 day in darkness and 1 day in 50 umol m^-2 s^-1 blue light
T3 sequence: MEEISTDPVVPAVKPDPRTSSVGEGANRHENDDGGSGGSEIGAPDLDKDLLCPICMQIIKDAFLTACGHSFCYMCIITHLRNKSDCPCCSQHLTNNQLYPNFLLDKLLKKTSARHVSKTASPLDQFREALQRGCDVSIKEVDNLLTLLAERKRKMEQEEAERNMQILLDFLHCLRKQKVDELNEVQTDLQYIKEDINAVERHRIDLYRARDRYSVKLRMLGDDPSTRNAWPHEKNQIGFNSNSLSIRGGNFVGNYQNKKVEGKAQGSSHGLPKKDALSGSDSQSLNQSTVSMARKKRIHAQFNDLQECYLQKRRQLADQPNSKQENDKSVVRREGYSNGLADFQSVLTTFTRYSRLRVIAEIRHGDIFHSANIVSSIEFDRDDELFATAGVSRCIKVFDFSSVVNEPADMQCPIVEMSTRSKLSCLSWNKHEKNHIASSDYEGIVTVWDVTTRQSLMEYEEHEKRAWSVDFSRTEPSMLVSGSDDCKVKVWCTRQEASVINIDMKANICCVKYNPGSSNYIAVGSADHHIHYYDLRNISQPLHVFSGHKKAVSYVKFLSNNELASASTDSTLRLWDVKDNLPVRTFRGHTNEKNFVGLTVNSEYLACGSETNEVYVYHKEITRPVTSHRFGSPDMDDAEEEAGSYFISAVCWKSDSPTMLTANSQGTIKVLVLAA

[4] = molecular target: T4, cLUC-COP1 (Arabidopsis) (UniProt P43254); assay: split reporter; luciferase complementation imaging (LCI); nLUC and cLUC fusion proteins expressed in transfected N. benthamiana leaves; luminescence imaged with a CCD camera and quantified, also on leaf discs in a plate reader (GFP-NLS-GUS as transfection control)
T4 sequence: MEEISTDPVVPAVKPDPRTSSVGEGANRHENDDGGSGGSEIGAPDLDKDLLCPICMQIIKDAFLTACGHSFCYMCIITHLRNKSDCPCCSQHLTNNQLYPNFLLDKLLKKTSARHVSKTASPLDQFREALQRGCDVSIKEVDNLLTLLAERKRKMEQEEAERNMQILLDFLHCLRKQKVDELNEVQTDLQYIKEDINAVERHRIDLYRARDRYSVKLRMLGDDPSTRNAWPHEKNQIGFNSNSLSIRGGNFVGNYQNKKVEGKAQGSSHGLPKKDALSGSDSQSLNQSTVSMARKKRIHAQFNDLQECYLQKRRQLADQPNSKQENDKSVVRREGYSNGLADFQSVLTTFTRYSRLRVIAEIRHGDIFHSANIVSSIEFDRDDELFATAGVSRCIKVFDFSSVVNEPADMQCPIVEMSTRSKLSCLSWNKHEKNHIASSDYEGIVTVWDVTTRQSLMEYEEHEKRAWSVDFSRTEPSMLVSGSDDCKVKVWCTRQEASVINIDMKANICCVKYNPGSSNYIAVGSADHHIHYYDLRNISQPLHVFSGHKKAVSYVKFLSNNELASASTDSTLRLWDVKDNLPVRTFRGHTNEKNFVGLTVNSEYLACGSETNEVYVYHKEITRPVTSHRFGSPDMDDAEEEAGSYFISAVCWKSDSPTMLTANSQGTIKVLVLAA

[5] = molecular target: T5, YFP-COP1 (Arabidopsis) (UniProt P43254); assay: FRET or BRET; FRET-FLIM; lifetime of the donor YFP-COP1 in the whole nucleus of leek epidermal cells after particle bombardment; acceptor mCherry-PAP2; CFP or CFP-CRY1 co-expressed as third protein
T5 sequence: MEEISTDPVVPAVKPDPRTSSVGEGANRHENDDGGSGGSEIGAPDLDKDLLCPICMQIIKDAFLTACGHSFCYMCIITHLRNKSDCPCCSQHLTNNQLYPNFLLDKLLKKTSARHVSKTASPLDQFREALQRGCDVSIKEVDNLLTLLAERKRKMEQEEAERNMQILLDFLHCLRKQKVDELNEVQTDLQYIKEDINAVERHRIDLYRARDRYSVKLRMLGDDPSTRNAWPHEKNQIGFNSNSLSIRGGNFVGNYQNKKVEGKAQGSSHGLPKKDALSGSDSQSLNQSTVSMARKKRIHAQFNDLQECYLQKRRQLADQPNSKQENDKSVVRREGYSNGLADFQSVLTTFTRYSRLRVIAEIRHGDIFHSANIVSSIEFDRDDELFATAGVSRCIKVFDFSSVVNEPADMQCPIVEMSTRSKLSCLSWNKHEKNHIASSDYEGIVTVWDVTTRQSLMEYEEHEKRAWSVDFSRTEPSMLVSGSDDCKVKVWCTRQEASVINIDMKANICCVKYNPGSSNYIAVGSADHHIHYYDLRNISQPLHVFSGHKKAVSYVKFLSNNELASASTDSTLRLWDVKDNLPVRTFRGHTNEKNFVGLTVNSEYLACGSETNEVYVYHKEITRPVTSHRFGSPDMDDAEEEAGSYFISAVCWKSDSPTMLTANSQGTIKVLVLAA

[6] = molecular target: T4, cLUC-COP1 (Arabidopsis); assay: split reporter; LCI competition: cLUC-COP1 and an nLUC-fused substrate co-expressed with a GFP-tagged third protein or GFP-NLS-GUS (negative control) in transfected N. benthamiana leaves; TagRFP as transfection control

Molecule: CRY1-VP16 (from UniProt Q43125 1-681)
binding [1]: binds

Molecule: CRY1 (LexA-based yeast two-hybrid fusion) (from UniProt Q43125 1-681)
binding [2]: binds

Molecule: CRY1 fused to the N-terminal half of luciferase (nLUC) (from UniProt Q43125 1-681)
binding [4]: binds

B2: mCherry-PAP2 (protein, UniProt Q9ZTC3 1-249)
chain: MEGSSKGLRKGAWTAEEDSLLRLCIDKYGEGKWHQVPLRAGLNRCRKSCRLRWLNYLKPSIKRGRLSNDEVDLLLRLHKLLGNRWSLIAGRLPGRTANDVKNYWNTHLSKKHESSCCKSKMKKKNIISPPTTPVQKIGVFKPRPRSFSVNNGCSHLNGLPEVDLIPSCLGLKKNNVCENSITCNKDDEKDDFVNNLMNGDNMWLENLLGENQEADAIVPEATTAEHGATLAFDVEQLWSLFDGETVELD
binding [5]: binds

Further lines, results first:

binding [3]: binds
Molecule: CRY1 (yeast three-hybrid 'bridge protein') (from UniProt Q43125 1-681)

binding [5]: binds
Molecule: CFP-CRY1 (from UniProt Q43125 1-681)

binding [3]: binds
B1: AD-PAP2 (protein, UniProt Q9ZTC3 1-249)
chain: MEGSSKGLRKGAWTAEEDSLLRLCIDKYGEGKWHQVPLRAGLNRCRKSCRLRWLNYLKPSIKRGRLSNDEVDLLLRLHKLLGNRWSLIAGRLPGRTANDVKNYWNTHLSKKHESSCCKSKMKKKNIISPPTTPVQKIGVFKPRPRSFSVNNGCSHLNGLPEVDLIPSCLGLKKNNVCENSITCNKDDEKDDFVNNLMNGDNMWLENLLGENQEADAIVPEATTAEHGATLAFDVEQLWSLFDGETVELD

binding [6]: binds
B3: PAP2-nLUC (protein, UniProt Q9ZTC3 1-249)
chain: MEGSSKGLRKGAWTAEEDSLLRLCIDKYGEGKWHQVPLRAGLNRCRKSCRLRWLNYLKPSIKRGRLSNDEVDLLLRLHKLLGNRWSLIAGRLPGRTANDVKNYWNTHLSKKHESSCCKSKMKKKNIISPPTTPVQKIGVFKPRPRSFSVNNGCSHLNGLPEVDLIPSCLGLKKNNVCENSITCNKDDEKDDFVNNLMNGDNMWLENLLGENQEADAIVPEATTAEHGATLAFDVEQLWSLFDGETVELD
